# PubChem BioAssay AID1259354 (Paczesny and Yang Labs, IUPUI and University of Michigan, 2018)
# Protein sequences, listed by entry. Tags and fused reporters are not part of them. Lines headed by an entry give the natural chain unless they say otherwise; changes in a name come on top.
# UniProt Q01638: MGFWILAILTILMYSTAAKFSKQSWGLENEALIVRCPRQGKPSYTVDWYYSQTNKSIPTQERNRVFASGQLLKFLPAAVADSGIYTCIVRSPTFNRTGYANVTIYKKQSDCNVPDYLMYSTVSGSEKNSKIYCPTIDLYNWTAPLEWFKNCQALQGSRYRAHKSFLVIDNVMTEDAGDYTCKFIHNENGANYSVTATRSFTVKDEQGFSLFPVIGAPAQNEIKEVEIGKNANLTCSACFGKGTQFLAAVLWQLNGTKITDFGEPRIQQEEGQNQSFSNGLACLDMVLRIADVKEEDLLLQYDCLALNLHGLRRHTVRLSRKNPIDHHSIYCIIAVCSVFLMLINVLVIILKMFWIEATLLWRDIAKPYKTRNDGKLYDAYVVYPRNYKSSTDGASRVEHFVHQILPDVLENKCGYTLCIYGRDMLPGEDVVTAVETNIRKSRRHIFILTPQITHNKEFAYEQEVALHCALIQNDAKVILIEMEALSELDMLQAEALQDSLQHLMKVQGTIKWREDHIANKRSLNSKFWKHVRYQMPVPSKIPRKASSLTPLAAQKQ
# “And” between values parts separate entries of the source, which are not always exact repeats. Equal values may be shown once. Among all 78,000 compounds or so, about 1,800 (2.3%) were called active. The inconclusive results got no clear call from the source; some entries with a clear call stand among them for comparison. No stated cut-off is given here; in the data, active means inhibition above about 30%; inconclusive means mostly about 10% to 28%; inactive means weaker than that.
# Target: Interleukin-1 receptor-like 1 (Homo sapiens) (UniProt Q01638)
# Assay: blocks human ST2 binding to IL-33, primary screen, biochemical, AlphaLISA (AID 1259354)
# Details: AlphaLISA ST2-Fc/biotin-IL-33 interaction, 1 h; at 17 µM, active compounds read high
row,SMILES,inhibition
1,Cc1ccc(O)c(CNc2nc3ccccc3n2C)c1,inconclusive: 10%
2,CCOC(=O)C1=C(C)NC2=C(C(=O)CCC2)C1c1ccc(OCC)c(OC)c1 (stereo not drawn),inactive
3,CCOc1ccc2nc(Cl)c(C3CC(c4ccccc4)=NN3C(=O)CCC(=O)O)cc2c1 (stereo not drawn),inconclusive: 12%
4,CCOC(=O)N1CCC(NCc2cccnc2N2CCCC(O)C2)CC1 (stereo not drawn),inconclusive: 16%
5,Cc1ccc(C2(O)CCN(Cc3nc4c(cnn4C)c(=O)[nH]3)CC2)nc1,inactive
6,N#CC1=C(N)Oc2cc(N)ccc2C1c1cccs1 (stereo not drawn),inconclusive: 12%
7,O=c1c2c(nc(SCc3c(F)cccc3Cl)n1-c1ccccc1)CCS2,inconclusive: 25%
8,CC(=O)Nc1ccc(-c2ccc(=O)n3c2[C@@H]2C[C@@H](CN(C(=O)NC4CCCCC4)C2)C3)cc1,inconclusive: 23%
9,Cc1ccc(CCN2CC(C(=O)NCCN3CCCC3)CC2=O)cc1 (stereo not drawn),inactive
10,O=c1oc2ccc(Br)cc2cc1-c1nc(-c2cccs2)cs1,active: 30%
11,CCc1cn[nH]c1C1CCN(C(=O)c2cnc3cc(=O)[nH]n3c2C)CC1,inactive
12,COC(=O)C1=C(C)Nc2nc(SCc3ccccc3)[nH]c(=O)c2C1c1cccc(F)c1 (stereo not drawn),inactive
13,CC(=O)c1ccc(N=c2oc3ccc(Br)cc3cc2C(N)=O)cc1,inconclusive: 26%
14,CCOc1ccc(NCC(=O)c2ccc(Br)cc2)cc1,inactive
15,Cc1ccc(Nc2cc(C)nc(N3CCN(S(=O)(=O)c4cc(C(C)C)ccc4C)CC3)n2)cc1,active: 30%
16,Cc1nc2sc(C(c3ccc(Cl)cc3)N3CCOCC3)c(O)n2n1 (stereo not drawn),inconclusive: 14%
17,Fc1ccc(Cn2ncc3c2CN(c2ncnc4ccsc24)C3)cc1,inconclusive: 19%
18,Cc1cc(C)cc(-n2c(=O)c3sccc3n(CC(=O)NCc3ccco3)c2=O)c1,inconclusive: 19%
19,O=C(Cn1c(=O)n(-c2ccc(F)cc2F)c(=O)c2sccc21)OCc1ccccc1,inactive
20,O=C(C1CC1)N1CCc2cc(S(=O)(=O)NCCN3CCCC3)ccc21,inconclusive: 11%
21,CCNC(=O)N[C@H]1CC[C@]2(C)CC[C@@H]([C@H](C)C(=O)NCc3cccs3)[C@H](O)[C@H]2[C@@H]1C,inactive
22,Cc1ccccc1/C=C1\Sc2ccccc2N(CC(=O)NCc2ccco2)C1=O,inconclusive: 10%
23,O=C(NCc1ccc2c(c1)OCO2)c1cccc(I)c1,inactive
24,CN(C)c1ccc(/C=C2\N=C(c3ccc(Cl)cc3Cl)OC2=O)cc1,inconclusive: 17%

row,SMILES,inhibition
1,O=C1CSC(c2ccccc2)N1c1ccc(F)c(Cl)c1 (stereo not drawn),inactive
2,N#CC1=C([S-])NC(O)(c2ccccc2)C([n+]2ccccc2)C1c1ccccc1Br (stereo not drawn),inconclusive: 15%
3,CCc1ccc(OCC(=O)Nc2ccc(S(=O)(=O)N3CCCC3)cc2)cc1,inconclusive: 14%
4,Cc1ccc(Cl)cc1N1C(=O)C(N2C(=O)c3cccc([N+](=O)[O-])c3C2=O)C1c1cccs1 (stereo not drawn),inconclusive: 21%
5,O=C(O)C[C@@H]1CCN(C(=O)Nc2ccccc2)C[C@@H]1CCN1CCN(c2ccc(F)cc2)CC1,active: 69%
6,CCSCCOC(=O)C1=C(C)NC2=C(C(=O)C(C(=O)OC)C(C)C2)C1c1ccc(F)cc1 (stereo not drawn),inactive
7,C#CCOc1ccc(C2C(C#N)=C(N)Oc3cc4c(cc32)OCO4)cc1OC (stereo not drawn),inconclusive: 10%
8,CC(C)Cc1cc(C(=O)N2CCCC2c2ccccn2)no1 (stereo not drawn),inactive
9,CN(C)C(=O)c1nn(Cc2ccccc2)c2c1CN(C/C=C/c1ccccc1)CC2,inactive
10,Cc1noc(C)c1CN1CCC(c2n[nH]c(=O)n2-c2ccccc2)CC1,inconclusive: 11%
11,Cc1ccc(O)c(Nc2cc(C)nc3ncnn23)c1,inactive
12,COc1ccc2cc3cc(C(=O)NCCN4CCc5ccccc5C4)oc3nc2c1,inconclusive: 12%
13,O=C(Cc1ccc(Cl)cc1)Nc1ccc(S(=O)(=O)Nc2nccs2)cc1,inconclusive: 19%
14,CCC(C(=O)Nc1nnc(-c2ccccc2F)s1)c1ccccc1 (stereo not drawn),inconclusive: 12%
15,CCCOc1ccccc1-c1nc2n[nH]nc2c(=O)[nH]1,inconclusive: 12%
16,Cc1cc(C)c(S(=O)(=O)N=C2C=C(Br)C(=O)c3ccccc32)cc1C,active: 35%
17,CC(C)(O)C#Cc1ccc(C(=O)NCc2ccncc2)cc1,inactive
18,CC(=O)Nc1ccc(S(=O)(=O)Nc2ccc3c(c2)OCO3)cc1,inconclusive: 15%
19,O=C(c1ccccn1)C1CCCN(C(=O)c2c(O)cccc2O)C1 (stereo not drawn),inconclusive: 22%
20,Oc1cccc(C2c3[nH]c4ccccc4c3CCN2Cc2cnn(-c3ccccc3)c2)c1 (stereo not drawn),inconclusive: 28%
21,Cc1cccc(NS(=O)(=O)c2ccc(Cl)cc2)c1,inactive
22,Cc1cccc(C)c1N=C1C(=O)Nc2ccccc21,inconclusive: 14%
23,CN(C)CCN1C(=O)CC(CC(=O)N2CCN(C3CCCCC3)CC2)(c2ccccc2F)C1=O (stereo not drawn),inconclusive: 14%
24,O=C(CC(=O)c1ccc([N+](=O)[O-])cc1)Nc1ccccc1Cl,inconclusive: 28%

row,SMILES,inhibition
1,CC(=O)C1CC(c2ccccc2)=NN1c1ccccc1 (stereo not drawn),inconclusive: 28%
2,CC(C)Oc1cccc(C(=O)C2CCCN(S(=O)(=O)c3cccc4cccnc34)C2)c1 (stereo not drawn),inconclusive: 16%
3,COc1cc(OC)cc(C(=O)NCC2CCCN(Cc3ccc(SC)cc3)C2)c1 (stereo not drawn),inconclusive: 16%
4,COC(=O)c1coc(CN2C[C@H]3C[C@H](O)[C@@H](O)C[C@H]3C2)n1,inconclusive: 22%
5,CC1=C[C@@H](CNC(=O)c2ccco2)[C@H](C(C)C)C[C@H]1CC(=O)NC1CCCC1,inactive
6,CC(=O)Nc1ccccc1NC(=O)CNCc1ccc2sccc2c1,inconclusive: 11%
7,CC(=O)N(CN1C(=O)c2ccccc2C1=O)c1cc(C)ccc1C,inactive
8,CNCC(=O)NC1CC(=O)N(c2ccccc2OC)C1 (stereo not drawn),inconclusive: 15%
9,O=C(c1csc2nc(-c3ccccc3)cn12)N1CCCC(c2ccccc2)CC1 (stereo not drawn),inconclusive: 17%
10,Cc1nc2c(C(=O)NCc3ccc(F)cc3)c[nH]n2c(=O)c1Cc1ccccc1F,inconclusive: 12%
11,CCOc1cccc(/C=C/c2ccc3cccc(O)c3n2)c1OC,active: 54%
12,CC(C)(O)C#Cc1cccc(C(=O)N2CCNC(=O)C2c2ccc(F)cc2)c1 (stereo not drawn),inconclusive: 11%
13,O=C(/C=C/c1ccccc1)NC(Nc1cccnc1)C(Cl)(Cl)Cl (stereo not drawn),inconclusive: 21%
14,O=C(Cn1c(-c2cscn2)nc2ccccc21)Nc1ccccc1F,inconclusive: 15%
15,CC(C)c1ccc(N(C(=O)C2CC2)C2C=CS(=O)(=O)C2)cc1 (stereo not drawn),inconclusive: 24%
16,Cc1ccnc(NS(=O)(=O)c2ccc(NC(=O)c3ccc(Cl)cc3)cc2)n1,inconclusive: 14%
17,CCCCOc1ccccc1/C=C1\C(=O)Nc2ccc(Br)cc21,inconclusive: 28%
18,CN(C)c1ccc(CNC(=O)c2cccn2-c2nnc(N3CCCCC3)s2)cc1,inconclusive: 10%
19,CCC(=O)N1CCc2cc(Br)cc(S(=O)(=O)NCCN3CCOCC3)c21,inactive
20,Cc1c(CC(Cl)(Cl)Cl)c2c(n1CCC(=O)O)CC(C)(C)CC2=O,inactive
21,Cc1cc(NC(=O)c2cc(C(C)C)on2)no1,inconclusive: 18%
22,Cc1oc(-c2ccc(Cl)cc2)nc1CSCC(=O)N1CCCCCC1,inactive
23,CCC(=O)N1c2ccccc2-c2nnc(SC)nc2OC1c1ccc(OC)cc1 (stereo not drawn),inconclusive: 14%
24,COc1cc(C(=O)Nc2c3c(nn2C(C)(C)C)CSC3)cc(OC)c1OC,inactive

# Grouped by structure: the compounds so far containing an aryl thioether with sulfur outside any ring.
row,SMILES,inhibition
7,O=c1c2c(nc(SCc3c(F)cccc3Cl)n1-c1ccccc1)CCS2,inconclusive: 25%
12,COC(=O)C1=C(C)Nc2nc(SCc3ccccc3)[nH]c(=O)c2C1c1cccc(F)c1 (stereo not drawn),inactive
3,COc1cc(OC)cc(C(=O)NCC2CCCN(Cc3ccc(SC)cc3)C2)c1 (stereo not drawn),inconclusive: 16%
23,CCC(=O)N1c2ccccc2-c2nnc(SC)nc2OC1c1ccc(OC)cc1 (stereo not drawn),inconclusive: 14%

# The listing continues.

row,SMILES,inhibition
1,Cn1c2c(c(=O)n(C)c1=O)C(c1ccc(Cl)c(Cl)c1)C1=C(N2)c2ccccc2C1=O (stereo not drawn),inconclusive: 20% and inconclusive: 13%
2,Cc1ccc(NC(=O)NC[C@H]2O[C@@H](CC(=O)NCCN(C)C)[C@H](O)[C@@H]2O)cc1,inconclusive: 17%
3,CN(C)c1nc(OCCNC(=O)Nc2ccccc2)nc(N(C)C)n1,inconclusive: 11%
4,N#Cc1nc(COc2ccccc2F)oc1N1CCCC1,active: 53%
5,CC1=CC(C)C(COC(=O)CN2CCCCC2)(COC(=O)CN2CCCCC2)C(C)C1 (stereo not drawn),inconclusive: 24%
6,C/C=C/COc1nc2c(c(=O)n(C)c(=O)n2C)n1C,inconclusive: 24%
7,COc1ccc(NC(=O)CSc2cn(C)c3ccccc23)c(OC)c1,inactive
8,CCOc1ccccc1N1CCN(Cc2ccoc2)CC1,inconclusive: 15%
9,O=C(CSc1nc2c(c(=O)n1-c1ccc(F)cc1)SCC2)NCC1CCCO1 (stereo not drawn),inconclusive: 11%
10,COc1cccc(NC(c2ccccn2)c2ccc3cccnc3c2O)c1 (stereo not drawn),inconclusive: 20%
11,CCC(=O)N1N=C2c3cc(OC)ccc3CCC2C1c1ccccc1[N+](=O)[O-] (stereo not drawn),inconclusive: 24%
12,CN1CCC2(CC1)CN(C(=O)CCCn1cncn1)CCCN2C,inconclusive: 14%
13,Cc1nc2c(ccc3nc(NC(=O)c4cccc(Cl)c4)sc32)s1,inconclusive: 28%
14,CCOC(=O)c1c(NC(=O)c2noc3c2CCc2cc(OC)ccc2-3)sc(C)c1C,inconclusive: 17%
15,COc1cc(C2=NS(=O)(=O)c3ccccc3N2)cc(OC)c1OC,inactive
16,Fc1ccc(-c2noc([C@@H]3CCCN3Cc3ccccc3F)n2)nc1,inconclusive: 24%
17,COc1ccc(C(=O)N2c3ccc(F)cc3CCC2C)cc1 (stereo not drawn),inactive
18,O=S(=O)(c1cccc(Oc2ccccc2)c1)N1CCn2cncc2C1,inconclusive: 27%
19,Clc1ccc(-n2ncnc2-c2ccc3c(c2)OCO3)cc1,inconclusive: 12%
20,COc1ccc(-n2ncc3c(Nc4cc(C)ccc4C)ncnc32)cc1,inconclusive: 10%
21,COc1cccc(C(=O)NCCN2CCN(c3ccc(Cl)cc3)CC2)c1,inconclusive: 15%

# Pulled by structure from the list above (3):
row,SMILES,inhibition
6,CCSCCOC(=O)C1=C(C)NC2=C(C(=O)C(C(=O)OC)C(C)C2)C1c1ccc(F)cc1 (stereo not drawn),inactive
11,Cc1ccc(O)c(Nc2cc(C)nc3ncnn23)c1,inactive
11,CCC(=O)N1N=C2c3cc(OC)ccc3CCC2C1c1ccccc1[N+](=O)[O-] (stereo not drawn),inconclusive: 24%
